According to article doi:10.1101/2023.12.21.570062:
Where two headings read alike, the source gives them in different places. Results are given in words; binding and its absence hold for the method and conditions named. In cells and extracts the contact can be indirect. Here binding means that the protein was enriched with, or labelled near, the bait; the list need not be complete.

Protein sequences, listed by entry. Tags and fused reporters are not part of them.
UniProt A1ZAW0: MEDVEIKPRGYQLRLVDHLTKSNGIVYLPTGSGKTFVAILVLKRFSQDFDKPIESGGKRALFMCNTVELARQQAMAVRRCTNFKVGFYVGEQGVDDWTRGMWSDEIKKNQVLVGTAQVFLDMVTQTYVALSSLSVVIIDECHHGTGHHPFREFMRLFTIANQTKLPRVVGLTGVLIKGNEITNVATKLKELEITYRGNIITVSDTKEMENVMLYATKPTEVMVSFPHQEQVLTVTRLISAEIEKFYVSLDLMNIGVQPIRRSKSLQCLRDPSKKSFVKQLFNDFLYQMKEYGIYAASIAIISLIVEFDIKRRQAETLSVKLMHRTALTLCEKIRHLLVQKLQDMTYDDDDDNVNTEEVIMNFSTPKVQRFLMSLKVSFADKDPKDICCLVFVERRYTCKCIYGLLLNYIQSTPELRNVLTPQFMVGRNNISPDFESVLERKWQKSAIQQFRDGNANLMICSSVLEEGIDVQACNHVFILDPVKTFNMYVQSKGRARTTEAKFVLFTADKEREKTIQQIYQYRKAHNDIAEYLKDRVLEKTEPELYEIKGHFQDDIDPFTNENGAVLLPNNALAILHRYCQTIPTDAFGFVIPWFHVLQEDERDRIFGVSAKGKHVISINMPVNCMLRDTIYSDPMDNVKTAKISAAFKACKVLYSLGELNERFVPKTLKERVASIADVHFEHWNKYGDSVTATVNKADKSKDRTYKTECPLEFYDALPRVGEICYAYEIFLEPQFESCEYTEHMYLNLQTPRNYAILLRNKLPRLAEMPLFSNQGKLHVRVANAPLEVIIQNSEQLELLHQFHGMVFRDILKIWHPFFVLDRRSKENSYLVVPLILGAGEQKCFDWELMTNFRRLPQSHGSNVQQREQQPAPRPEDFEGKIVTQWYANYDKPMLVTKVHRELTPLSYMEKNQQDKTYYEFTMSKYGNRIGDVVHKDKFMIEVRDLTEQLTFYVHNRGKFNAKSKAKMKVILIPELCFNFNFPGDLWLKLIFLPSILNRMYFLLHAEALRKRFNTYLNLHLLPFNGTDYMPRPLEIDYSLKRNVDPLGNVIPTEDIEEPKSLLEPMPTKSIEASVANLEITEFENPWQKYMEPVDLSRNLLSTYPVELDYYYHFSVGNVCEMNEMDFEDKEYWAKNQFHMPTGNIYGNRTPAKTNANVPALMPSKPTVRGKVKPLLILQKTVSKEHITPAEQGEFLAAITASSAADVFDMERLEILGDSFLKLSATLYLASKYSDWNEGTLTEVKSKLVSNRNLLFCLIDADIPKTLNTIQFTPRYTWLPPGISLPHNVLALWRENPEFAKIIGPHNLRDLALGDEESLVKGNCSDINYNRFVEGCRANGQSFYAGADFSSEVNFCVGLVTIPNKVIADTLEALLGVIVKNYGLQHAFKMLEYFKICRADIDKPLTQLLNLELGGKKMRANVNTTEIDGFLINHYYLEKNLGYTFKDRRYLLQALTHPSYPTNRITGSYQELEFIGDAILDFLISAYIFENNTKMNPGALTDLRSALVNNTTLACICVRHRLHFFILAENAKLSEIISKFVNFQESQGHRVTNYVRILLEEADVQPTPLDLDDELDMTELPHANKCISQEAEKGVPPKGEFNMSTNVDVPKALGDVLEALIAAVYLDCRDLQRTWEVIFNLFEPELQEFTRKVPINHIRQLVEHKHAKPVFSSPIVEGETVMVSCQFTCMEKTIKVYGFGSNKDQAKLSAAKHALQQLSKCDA
UniProt P11147: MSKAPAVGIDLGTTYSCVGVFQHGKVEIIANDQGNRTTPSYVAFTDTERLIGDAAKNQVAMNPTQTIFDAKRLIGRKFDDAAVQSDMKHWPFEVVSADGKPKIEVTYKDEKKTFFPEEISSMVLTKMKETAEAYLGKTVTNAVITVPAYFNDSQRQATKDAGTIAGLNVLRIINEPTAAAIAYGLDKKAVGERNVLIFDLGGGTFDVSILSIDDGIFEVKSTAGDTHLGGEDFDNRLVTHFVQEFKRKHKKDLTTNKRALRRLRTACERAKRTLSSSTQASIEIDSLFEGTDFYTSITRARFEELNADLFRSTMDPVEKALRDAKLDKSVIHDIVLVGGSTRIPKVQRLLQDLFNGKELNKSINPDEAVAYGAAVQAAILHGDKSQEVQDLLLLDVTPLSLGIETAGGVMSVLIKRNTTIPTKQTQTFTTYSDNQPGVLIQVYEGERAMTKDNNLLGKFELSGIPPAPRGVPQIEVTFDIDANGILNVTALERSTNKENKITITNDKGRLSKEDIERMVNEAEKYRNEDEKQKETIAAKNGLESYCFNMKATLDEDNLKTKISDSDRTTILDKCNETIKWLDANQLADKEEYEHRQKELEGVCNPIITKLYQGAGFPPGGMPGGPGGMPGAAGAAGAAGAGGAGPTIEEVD
UniProt Q9I7T7: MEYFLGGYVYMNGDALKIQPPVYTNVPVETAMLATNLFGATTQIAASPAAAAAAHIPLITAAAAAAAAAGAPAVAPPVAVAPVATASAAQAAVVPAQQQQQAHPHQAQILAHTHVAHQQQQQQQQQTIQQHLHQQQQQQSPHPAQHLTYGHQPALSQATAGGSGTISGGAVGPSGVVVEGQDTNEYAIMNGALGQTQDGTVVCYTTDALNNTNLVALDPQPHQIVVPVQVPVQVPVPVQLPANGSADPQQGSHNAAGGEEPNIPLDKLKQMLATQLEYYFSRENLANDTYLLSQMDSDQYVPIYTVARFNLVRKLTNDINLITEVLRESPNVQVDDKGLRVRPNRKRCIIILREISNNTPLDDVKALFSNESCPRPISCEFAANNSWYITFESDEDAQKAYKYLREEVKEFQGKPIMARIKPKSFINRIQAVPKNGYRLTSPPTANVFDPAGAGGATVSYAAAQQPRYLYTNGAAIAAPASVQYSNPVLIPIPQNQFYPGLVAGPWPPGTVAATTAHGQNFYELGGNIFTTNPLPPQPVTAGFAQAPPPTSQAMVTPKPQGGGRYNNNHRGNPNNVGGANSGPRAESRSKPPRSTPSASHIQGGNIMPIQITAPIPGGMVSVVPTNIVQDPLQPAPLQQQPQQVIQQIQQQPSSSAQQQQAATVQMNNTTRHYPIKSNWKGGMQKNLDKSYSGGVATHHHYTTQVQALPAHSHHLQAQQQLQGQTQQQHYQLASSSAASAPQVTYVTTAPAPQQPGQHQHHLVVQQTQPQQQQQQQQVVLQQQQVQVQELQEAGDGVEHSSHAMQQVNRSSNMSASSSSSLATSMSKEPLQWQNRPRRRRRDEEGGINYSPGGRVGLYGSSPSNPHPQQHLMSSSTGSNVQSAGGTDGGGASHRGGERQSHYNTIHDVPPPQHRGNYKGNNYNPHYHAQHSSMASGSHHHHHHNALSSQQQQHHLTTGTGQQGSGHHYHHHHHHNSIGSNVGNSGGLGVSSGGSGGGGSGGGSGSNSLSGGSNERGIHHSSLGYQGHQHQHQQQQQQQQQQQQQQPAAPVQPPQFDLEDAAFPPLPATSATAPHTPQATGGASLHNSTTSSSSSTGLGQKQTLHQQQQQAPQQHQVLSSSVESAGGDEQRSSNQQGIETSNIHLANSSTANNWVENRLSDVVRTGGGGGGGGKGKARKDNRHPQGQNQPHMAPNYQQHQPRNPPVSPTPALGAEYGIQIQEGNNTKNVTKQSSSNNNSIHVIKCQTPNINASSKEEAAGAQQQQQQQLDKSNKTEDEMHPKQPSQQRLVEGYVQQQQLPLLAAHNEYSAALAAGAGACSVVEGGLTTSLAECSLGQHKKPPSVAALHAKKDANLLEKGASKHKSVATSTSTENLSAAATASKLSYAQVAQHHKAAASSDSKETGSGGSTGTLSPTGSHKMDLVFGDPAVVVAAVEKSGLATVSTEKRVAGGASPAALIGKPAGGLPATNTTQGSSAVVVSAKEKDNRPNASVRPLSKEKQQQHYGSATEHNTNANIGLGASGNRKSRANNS

How the values were obtained:
Test in all cases: affinity purification with mass spectrometry
[1] = biological target: GFP::Dicer-2^WT (Drosophila melanogaster) (UniProt A1ZAW0)
[2] = biological target: GFP::Dicer-2^WT (Drosophila melanogaster) (UniProt A1ZAW0); remark: listed apart in the source
[3] = biological target: GFP::Dicer-2^WT (Drosophila melanogaster) (UniProt A1ZAW0); remark: listed apart in the source

## Hsc70-4 (from UniProt P11147 1-651)
[1]
  binding: binds

## Larp4B (from UniProt Q9I7T7 1-1531)
[1]
  binding: binds

B1: Arc1 (protein, UniProt Q7K1U0 1-254)
chain: MAQLTQMTNEQLRELIEAVRAAAVGAAGSAAAAGGADASRGKGNFSACTHSFGGTRDHDVVEEFIGNIETYKDVEGISDENALKGISLLFYGMASTWWQGVRKEATTWKEAIALIREHFSPTKPAYQIYMEFFQNKQDDHDPIDTFVIQKRALLAQLPSGRHDEETELDLLFGLLNIKYRKHISRHSVHTFKDLLEQGRIIEHNNQEDEEQLATAKNTRGSKRTTRCTYCSFRGHTFDNCRKRQKDRQEEQHEE
[2]
  binding: binds

B2: R2D2 (protein, UniProt Q9VLW8 1-311)
chain: MDNKSAVSALQEFCARTQINLPTYSFIPGEDGGYVCKVELLEIEALGNGRSKRDAKHLAASNILRKIQLLPGIHGLMKDSTVGDLDEELTNLNRDMVKELRDYCVRREMPLPCIEVVQQSGTPSAPEFVACCSVASIVRYGKSDKKKDARQRAAIEMLALISSNSDNLRPDQMQVASTSKLKVVDMEESMEELEALRRKKFTTYWELKEAGSVDHTGMRLCDRHNYFKNFYPTLKKEAIEAINSDEYESSKDKAMDVMSSLKITPKISEVESSSLVPLLSVELNCAFDVVLMAKETDIYDHIIDYFRTMLI
[3]
  binding: binds
[2]
  binding: binds
